The source of these data is patent US20200253979A1, “THERAPEUTIC METHODS RELATING TO HSP90 INHIBITORS” (AI Therapeutics, Inc., priority 2017, published 2020).

For assay [1], the system named is MOLM-13-R-PKC412 (midostaurin-resistant) cells. Description: CellTiter-Glo cell viability. The class given is cell-based, human. From the text:
(§1) In the clinic, tyrosine kinase inhibitors that target FLT3 initially show positive responses, but patients inevitably relapse due to the development of drug-resistance through various mechanisms, as discussed above.
In general terms: Cellular ATP, detected with luciferase, serves as a proxy for viable cell number.

A further assay deals with MOLM-13-LUC cells. The assay is described as follows: CellTiter-Glo cell viability. The class given is cell-based. The following applies: Homo sapiens, 72 hours.
Excerpt: as §1

By EC50 is commonly meant the concentration that produces a half-maximal response. A low value points to an effect from little substance. In the case of `CO[C@@H]1[C@H](N(C)C(=O)c2ccccc2)C[C@H]2O[C@]1(C)n1c3ccccc3c3c4c(c5c6ccccc6n2c5c31)C(=O)NC4` [midostaurin], the 50% effective concentration (EC50) in assay [1] (Homo sapiens, MOLM-13-R-PKC412, 72 hours) turned out to be 112 nM; with MOLM-13-LUC cells, 44 nM. For the same compound, in assay [1] (MOLM-13-R-PKC412 vs MOLM-13-LUC), the “fold difference in EC50, midostaurin-resistant vs control cells” value is recorded as ~2.5 fold.
